Experimental data published in paper PMC11192845.
No constants are given. Whether binding was seen depends on the method and setting. In cells and extracts the contact can be indirect. Some binding calls cover weakened binding; strength is not graded here. Where a sequence is shown, tags or fusion partners need not be part of it. Blank lines part the entries; values can stand above or below the binder they belong to.

Key:
CTDNEP1-Myc-FLAG (human) = biological target: T1, CTDNEP1-Myc-FLAG (human) (UniProt O95476); assay: co-IP; epitope-tagged TMEM255A and epitope-tagged CTDNEP1 co-expressed from cDNAs (reconstitution experiments); immunoprecipitation and immunoblot; conditions not described
T1 sequence: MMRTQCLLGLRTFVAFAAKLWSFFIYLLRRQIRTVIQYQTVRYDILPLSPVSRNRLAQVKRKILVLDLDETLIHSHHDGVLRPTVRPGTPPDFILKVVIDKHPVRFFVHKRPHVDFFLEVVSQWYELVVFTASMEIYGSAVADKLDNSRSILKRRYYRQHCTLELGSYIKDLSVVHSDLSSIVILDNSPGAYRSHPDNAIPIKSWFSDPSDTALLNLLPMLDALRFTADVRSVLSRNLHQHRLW

HA-CTDNEP1 (human) = biological target: T2, HA-CTDNEP1 (human) (UniProt O95476); assay: as above
T2 sequence: T1 sequence

- binding (CTDNEP1-Myc-FLAG (human)): binds
B1: HA-TMEM255A (protein, UniProt Q5JRV8 1-349)
chain: MHQSLTQQRSSDMSLPDSMGAFNRRKRNSIYVTVTLLIVSVLILTVGLAATTRTQNVTVGGYYPGVILGFGSFLGIIGSNLIENKRQMLVASIVFISFGVIAAFCCAIVDGVFAARHIDLKPLYANRCHYVPKTSQKEAEEVISSSTKNSPSTRVMRNLTQAAREVNCPHLSREFCTPRIRGNTCFCCDLYNCGNRVEITGGYYEYIDVSSCQDIIHLYHLLWSATILNIVGLFLGIITAAVLGGFKDMNPTLPALNCSVENTHPTVSYYAHPQVASYNTYYHSPPHLPPYSAYDFQHSGVFPSSPPSGLSDEPQSASPSPSYMWSSSAPPRYSPPYYPPFEKPPPYSP

- binding (HA-CTDNEP1 (human)): binds
B2: TMEM255A-Myc-FLAG (protein, UniProt Q5JRV8 1-349)
chain: B1 chain
